Experimental data published in publication PMC7819943, “Rice protein-binding microarrays: a tool to detect cis-acting elements near promoter regions in rice”.
This is one part of the list.

By UniProt entry, the sequences of proteins in these tests, tags left out.
UniProt Q0JBA9, entry or part of it: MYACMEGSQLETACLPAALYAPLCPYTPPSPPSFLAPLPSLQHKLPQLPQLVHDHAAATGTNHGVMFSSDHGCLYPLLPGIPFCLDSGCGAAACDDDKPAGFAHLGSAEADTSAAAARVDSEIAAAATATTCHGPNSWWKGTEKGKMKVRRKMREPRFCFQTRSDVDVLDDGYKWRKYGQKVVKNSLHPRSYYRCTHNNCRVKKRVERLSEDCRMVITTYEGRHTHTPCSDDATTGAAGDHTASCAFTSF

Each sequence was assayed against OsWRKY34 (Oryza sativa, UniProt Q0JBA9 1-250) (assay: protein-binding microarray (RPBM); PBS, 2% BSA, 51.3 ng/ul salmon testes DNA, 50 uM zinc acetate, 200 nM TF, 25 C, 1 h; high values mean tight binding). Conditions: protein: recombinant; tags: N-terminal polyhistidine and DsRed monomer fusion (pET32a); label: CyDye5-dUTP incorporated in the synthesized complementary strand; 3' TTTTT single-stranded linker to array surface; dsDNA, one strand shown.
Method in brief: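 An Axon 4000B scanner gave the binding signal as per-feature fluorescence intensity in arbitrary units. This followed washing of a custom Agilent array that had been incubated for 1 h at 25 °C with 200 nM protein in PBS, 2% BSA, salmon testes DNA and 50 µM zinc acetate. The proteins were transcription factors fused at the N-terminus to polyhistidine and DsRed, expressed in E. coli BL21-CodonPlus and purified on Ni–NTA.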
For “ACACATTCGTTTTCCATCCTCTCGCGCTGGTCTCAGCCCCCGGAGTCACCTAGTGCAG”, the binding signal was 8810 fluorescence intensity (a.u.).
With “GCTCTCCCTCCTCACGTCACGCGTGCCAAGTGCGATCCCCCGGAGTCACCTAGTGCAG” the binding signal was 8200 fluorescence intensity (a.u.).
“ATTCTTGATAGTACTAGTATTAGATTGTCATCGATATTTTCGGAGTCACCTAGTGCAG” was tested, and the binding signal was 8150 fluorescence intensity (a.u.).
With “AGTGAGTAGTATATTCTGTTTACTTCCAAGTTATGCTGACCGGAGTCACCTAGTGCAG” the binding signal was 8900 fluorescence intensity (a.u.).
For “TACTTCATACCTATACTTATCTCTAGTAATTTTTTCATGACGGAGTCACCTAGTGCAG”, the binding signal was 8390 fluorescence intensity (a.u.).
In the case of “ACACATATAAACTTTTAACTTTTCCGTCACATCGTTCCAACGGAGTCACCTAGTGCAG”, the binding signal is reported as 8970 fluorescence intensity (a.u.).
“AATCCTCTGAAAATCCTATAACATTTCATCTCAAATTTGTCGGAGTCACCTAGTGCAG” was tested, and the binding signal was 8580 fluorescence intensity (a.u.).
For “GCACCTCAACTGCCCCTTGTTTCCTTATCAATCTAATAAACGGAGTCACCTAGTGCAG”, the binding signal was 11300 fluorescence intensity (a.u.).
For “CTATTACATGTGGGACCCACCCGTCAGTTCTCTCTTCTCTCGGAGTCACCTAGTGCAG”, the binding signal was 8770 fluorescence intensity (a.u.).
In the case of “GAGAGGGAGGGAGGGGATAAAGGAGAGAGAGAGGGAGGGTCGGAGTCACCTAGTGCAG”, the binding signal is reported as 11900 fluorescence intensity (a.u.).
“GTTCCTAATTGAAGTACCTCTTATGTTAACTTTTATTTGTCGGAGTCACCTAGTGCAG” was tested, and the binding signal was 8510 fluorescence intensity (a.u.).
For “ATTCCTATATAGACACTGTACTCTACTTCTAATGTTCCTTCGGAGTCACCTAGTGCAG”, the binding signal was 8140 fluorescence intensity (a.u.).
For “TTATATATGTCACGCTACTATTACATCTAGATCTTTTGCACGGAGTCACCTAGTGCAG”, the binding signal was 9000 fluorescence intensity (a.u.).
“ATAGTTGCAAACATGGTTCCTGTACACCCCAGTCGAGAAACGGAGTCACCTAGTGCAG” was tested, and the binding signal was 8170 fluorescence intensity (a.u.).
With “TTCTTCTTGTCCTCCAAGCTCAGCTGTGCCACCCTAGCAACGGAGTCACCTAGTGCAG” the binding signal was 10900 fluorescence intensity (a.u.).
In the case of “CTTATATTAGCCGCTACCCTTGTTTCTCAATGAATATTTACGGAGTCACCTAGTGCAG”, the binding signal is reported as 8950 fluorescence intensity (a.u.).
“CCAAACCATTAACACATGCATCCTGCATCCTATACCACTCCGGAGTCACCTAGTGCAG” was tested, and the binding signal was 8600 fluorescence intensity (a.u.).
“GCTCGCGCTGTTCCCGCCTCGCTGCCACCTGTCACCTCCTCGGAGTCACCTAGTGCAG” was tested, and the binding signal was 8460 fluorescence intensity (a.u.).
With “TTCCAACTTTACCTCTCGTTTTTCACGCGTGTGCTCCTGACGGAGTCACCTAGTGCAG” the binding signal was 13300 fluorescence intensity (a.u.).
In the case of “GCCGGCTTCCTAATTTTGTTTTCTGCACGCTTTTAAAACTCGGAGTCACCTAGTGCAG”, the binding signal is reported as 10100 fluorescence intensity (a.u.).
With “TCATCCTGTATCTGGGACCGCATTGCTATTTACGGTTCCTCGGAGTCACCTAGTGCAG” the binding signal was 8790 fluorescence intensity (a.u.).
In the case of “GTCCCACCCACCACCTCTCTCTCTCTCTCTCTCTCTCTCTCGGAGTCACCTAGTGCAG”, the binding signal is reported as 9170 fluorescence intensity (a.u.).
For “GCCTTCTGACTAATCACACTCCTTCACAGCCTAATCTTCCCGGAGTCACCTAGTGCAG”, the binding signal was 8240 fluorescence intensity (a.u.).
“ATGTTTTATGAGATGATTTGGTTGTGTTTCAGCTTTTTAACGGAGTCACCTAGTGCAG” was tested, and the binding signal was 8690 fluorescence intensity (a.u.).
For “CATTAATTTTGGCATATACTCTAGCTGTCATGTTTCATTCCGGAGTCACCTAGTGCAG”, the binding signal was 13400 fluorescence intensity (a.u.).
With “CCATCCACTCGCCGCGCCAAACACCACAAGTCCTCGCCACCGGAGTCACCTAGTGCAG” the binding signal was 9680 fluorescence intensity (a.u.).
With “CTATTCGAGCCCTTTTTCCTATTCTTTTGTATATAGTTCTCGGAGTCACCTAGTGCAG” the binding signal was 11300 fluorescence intensity (a.u.).
With “ATCCTCTCGGACGCAGGTTATCTCACTATTTCATTTTTTTCGGAGTCACCTAGTGCAG” the binding signal was 8240 fluorescence intensity (a.u.).
For “AAGAAAACACGCTTCTCCCTTCTCCTCTTTTCCCTTTTTTCGGAGTCACCTAGTGCAG”, the binding signal was 9150 fluorescence intensity (a.u.).
“GGGCTCATGATTGGGGATATGGCGGTGTTGGCGAAGAATGCGGAGTCACCTAGTGCAG” was tested, and the binding signal was 11500 fluorescence intensity (a.u.).
In the case of “GTACACCGTAGCTCTATCTCCTCCACGCAAAACCCACCGGCGGAGTCACCTAGTGCAG”, the binding signal is reported as 8230 fluorescence intensity (a.u.).
For “TACACGCAATCTATGTAATCAGTTATTTTTTCGTTTATATCGGAGTCACCTAGTGCAG”, the binding signal was 8200 fluorescence intensity (a.u.).
In the case of “GGCGCTACAAAGTGCTTCACATCTTTGCCTCGTTCGTCCTCGGAGTCACCTAGTGCAG”, the binding signal is reported as 9110 fluorescence intensity (a.u.).
“AAATTATGTTTGATCACTCAGCAATTTCTGTTTCGTTTATCGGAGTCACCTAGTGCAG” was tested, and the binding signal was 9330 fluorescence intensity (a.u.).
In the case of “TTGCAATCCTCTGTTTTACACTTGTATTCCAGTCAGAATCCGGAGTCACCTAGTGCAG”, the binding signal is reported as 8240 fluorescence intensity (a.u.).
In the case of “GTTGTGGGTGTTCGATATTTTGATCTCCATCGGACGATCGCGGAGTCACCTAGTGCAG”, the binding signal is reported as 10600 fluorescence intensity (a.u.).
With “AACTCCTGGCCTGTGTTGGGCTACAGTTTTGGTTCCTAGTCGGAGTCACCTAGTGCAG” the binding signal was 8720 fluorescence intensity (a.u.).
In the case of “CCCACCGCCGCCGCCGCCGCCTCCATCGCCGCCGCCGACACGGAGTCACCTAGTGCAG”, the binding signal is reported as 8640 fluorescence intensity (a.u.).
In the case of “TTCGATCCAGAGCTCTCTGCCTCTCTAGCTAGCTTCAATTCGGAGTCACCTAGTGCAG”, the binding signal is reported as 9760 fluorescence intensity (a.u.).
In the case of “TACACTCTCCTCACCGATGATCCATCGCCGTCGCCATTGCCGGAGTCACCTAGTGCAG”, the binding signal is reported as 8650 fluorescence intensity (a.u.).
For “ATTGTGCAGTTGTTCCCTAATCCCTCTGCATTTCAATTCACGGAGTCACCTAGTGCAG”, the binding signal was 8930 fluorescence intensity (a.u.).
For “ATCCTCTCAACCCATCACCCTATGATTTGATTCTATCCACCGGAGTCACCTAGTGCAG”, the binding signal was 8660 fluorescence intensity (a.u.).
